Results published in patent publication US20110009597A1, “RECOMBINANT GANODERMA LUCIDIUM IMMUNOMODULATORY PROTEIN (rLZ-8) AND USES THEREOF” (priority 2008, published 2011).

Test system: WBC
Experiment: Cyclophosphamide low-leucocyte mice model, WBC
Type: in vivo
Description: rLZ-8 preparation of sterile saline. Divide them into 5 μg·kg^−1, 2.5 μg√kg^−1, 1.25 μg·kg^−1, 0.62 μg·kg^−1 dose groups.
Genlei™ Scimax™ [Recombinant human granulocyte colony-stimulating factor injection (rhG-CSF)], production lot: 20060403; 75 μg/vial is prepared with sterile normal saline into the preparation of 3.2 μg·kg^−1, 0.2 ml/vial.
Cyclophosphamide (CP) for injection (the production lot number 050216; 200 mg/vial) is prepared with sterile normal saline into the preparation of 12.5 mg·kg^−1, 0.2 ml/vial.
Normal control group, several protein dose groups, positive control group (Genlei™ Scimax™).
Excluding the normal control group (given same normal saline), each group of mice were given tail vein injection of cyclophosphamide, […], 0.2 ml/vial, for 3 consecutive days. On 3rd day, rat tail venous blood sampling, sent to Jilin University First Hospital laboratory, cell analyze the number of WBC. After successful modeling, they were given to the above groups respective dose of rLZ-8 and positive drugs (Genlei™ Scimax™) treatment, the normal control group and CP groups were given same normal saline, on the 3rd, 7th and 14th day of the treatment to draw venous blood from mice tail respectively, sent to Jilin University First Hospital testing the numbers of WBC. Compare WBC changes before and after the treatment for analysis of drug efficacy.

| Molecule | WBC, After modeling (rLZ-8 0.62 μg·kg−1 group) | WBC, After modeling (rLZ-8 1.25 μg·kg−1 group) | WBC, After modeling (rLZ-8 2.5 μg·kg−1 group) | WBC, After modeling (rLZ-8 5 μg·kg−1 group) | WBC, After modeling (Genlei Scimax 3.2 μg·kg−1 group) |
| --- | --- | --- | --- | --- | --- |
| rLZ-8: Recombinant Ganoderma Lucidum Immune Regulatory Protein expressed in Pichia pastoris (protein, UniProt P14945 2-111, looked up) Immunomodulatory protein Ling …: SDTALIFRLAWDVKKLSFDYTPNWGRGNPNNFIDTVTFPKVLTDKAYTYRVAVSGRNLGVKPSYAVESDGSQKVNFLEYNSGYGIADTNTIQVFVVDPDTNNDFIIAQWN | 1.4 ± 0.45 | 1.7 ± 0.45 | 1.5 ± 0.54 | 1.3 ± 0.32 | – |
| Genlei ™ Scimax ™: Recombinant human granulocyte colony-stimulating factor injection (rhG-CSF) (protein, UniProt P09919 31-207, looked up) Granulocyte …: TPLGPASSLPQSFLLKCLEQVRKIQGDGAALQEKLVSECATYKLCHPEELVLLGHSLGIPWAPLSSCPSQALQLAGCLSQLHSGLFLYQGLLQALEGISPELGPTLDTLQLDVADFATTIWQQMEELGMAPALQPTQGAMPAFASAFQRRAGGVLVASHLQSFLEVSYRVLRHLAQP | – | – | – | – | 1.5 ± 0.35 |
